The exact form of at least one protein or probe is not confirmed.

Consider one sequence from PMC6993207.

In the data set the test system is FOXE1. Description: EMSA. As to conditions: self-competition with 100-fold excess unlabeled Oligo R tested (lane 3); 40 mM Hepes pH 7.9, 75 mM KCl, 0.2 mM EDTA, 0.5 mM DTT, 150 ng/uL poly(dI-dC), 5% Ficoll, room temperature, 30 min; 5% PAGE in 0.5x TBE; protein translated in vitro; label: 32P (T4 PNK). In general terms: A gel shift assay detects complexes by their altered migration in electrophoresis.

On to “ATTCAAATAAACACTTGCATTTTA (double strand) [Oligo FOXE1 (ZEB1 promoter probe, Oligo R)]”, for which the binding result is listed as “binds”.
